PubChem BioAssay AID1508600 (Functional Genomics Laboratory (NCATS/FGL), 2020)
Screen size: about 53,000 sequences; about 3,700 (7%) were called active.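 The calls were made as follows: active = gene knockdowns whose robust z-score for IL-1 alpha signal is at least 2 or at most -2, so actives lie on both sides; inactive = the rest.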 This is one part of the list.

Experiment: Components of the Cytosolic LPS Sensing Pathway: Gene Identification via Genome-wide siRNA Screen;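 also: robust z of the log signal after scaling to non-targeting control siRNA wells of the plate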
Details: RAW264.7 macrophages, IL-1a HTRF, actives lie on both sides, screened at 100 nM (by protocol), cells primed 5 h with Pam3CSK4 first
Method in brief: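 Using IL-1a HTRF as read-out, the screen measured release from RAW264.7 cells after 48h siRNA knockdown (100 nM), 5 h Pam3CSK4 priming and 24 h cytosolic LipidA. Values were expressed relative to negative-control wells as robust z-scores.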

Sequence | z-score
CGCAAUUUGACAUUUGGAUTT against Plekhh2 | inactive: -1.67
CGAAUGAGAUUUUCACUCUTT against Tek | inactive: 1.07
GGACUGGAUUCAAACAAAATT against Lrrc1 | inactive: -0.796
CGAGUGAAUUCGAUGGACCTT against Olfr945 | inactive: 0.524
GGUUUUUCUUCAUCUUAUCTT against Hspb8 | inactive: 0.396
GGAAUCCUCUGAAUAACCUTT against Vmn1r172 | inactive: -1.14
GGAUUGUGGGAGAUAGAUATT against Psip1 | inactive: 0.901
UGCUUUUUUGCCUAGCCAATT against Gpr135 | inactive: 0.44
GCACCAAGGAACUUGUUUCTT against Trpv2 | inactive: -0.112
GCCAGGUUAAGCACUACGUTT against 2310022B05Rik | inactive: 0.083
GGAUUGUGCAGAGCAUCUGTT against Card14 | inactive: -1.45
GGAUCCUCGGACUAAAAGUTT against Pnma1 | inactive: -0.228
GCUAGUUAAUGGUAACAUATT against Sult1d1 | inactive: -1.68
GGUCACCUAAGUGCUUACGTT against Ceacam2 | inactive: -0.46
GGAACAGCUCUUUUGUGCUTT against Rin2 | inactive: 0.714
GGACAAAUGACUGGUACCCTT against Gorasp2 | inactive: -0.314
CCUGUUCUGUUAUCAACGGTT against Plxdc1 | inactive: 0.123
GGAAAGCUCACUUUCUUUUTT against Lmln | inactive: 0.185
GAUGUACGAUCUGGUGGUGTT against Exosc6 | active: 2.73
CGUGAAUCCUAACAUGAGATT against Sec11c | inactive: 0.0104
CGCUAGAAGGAUUAUACCUTT against Vps13c | inactive: 1.29
GGUAUUUAGAAACAUCAGUTT against Wls | active: -2.16
GGAGACACGGCCCUAAUCATT against Ddah2 | inactive: -1.35

Sequence | z-score
GGCGAGUUUGUUCUCUUAGTT against Olfr11 | inactive: 0.874
AGUUCGACUUUGACGACGGTT against Jph4 | inactive: 1.28
GGAAGUCCUUGCAUUCCUCTT against Dlec1 | inactive: 0.816
GGAAAAGGAAAAAUAACCUTT against Ptma | inactive: -0.555
GCAGAUCUAUAACAUUACATT against Rbsn | inactive: 0.366
CCAUAUACCCUUGAAUUCCTT against Tmem185b | inactive: 0.154
CCUCGAAAUACGAAGGCAATT against Amz2 | inactive: 0.232
GGUGCAUUAUAAGAAUCGCTT against Fhl1 | inactive: 0.144
GGUGUACACAUAAAUAUUGTT against Prl8a6 | inactive: -0.121
CCAUGUUAGAACUGGGACUTT against Tafa2 | active: 2.44
GCUGACAAUACUGAAUUGGTT against Pkhd1l1 | inactive: -0.67
GGAAUAUUUGCUUCGACAGTT against Alkbh6 | inactive: 0.885
GCUGAACUGUCUCAGCUCATT against Tmem81 | active: 2.06
GCAAGUCCUACAAUACAACTT against Tk1 | active: 5.5
GGUGAAGCUAUUUUUCUCATT against Nadsyn1 | inactive: 0.45
GCGAAGCCAUGUUUCACCUTT against Selenoo | inactive: -1.99
GCAUCAUUGUCAAUCAUAUTT against Olfr578 | active: -2.25
GGAAGUGAUACUGUCUAUATT against Rfx3 | inactive: 0.52
GCAAACGCAGUACUAUGGUTT against Pak2 | inactive: -0.818
GGAAAACCUUGGACAGGAGTT against Olfr876 | inactive: -0.267
GGAGCAUUUUAUUCAGAUGTT against Rad23b | active: 2.22
GCCUCCCUGAAUGCCUAUATT against Sectm1b | inactive: -1.81
GGGAUACGUCAUCUGUUAATT against Ilf3 | inactive: -0.667

Reformatted as tab-separated lines: part of the list above.
Sequence	z-score
GGACUGGAUUCAAACAAAATT against Lrrc1	inactive: -0.796
GGAUUGUGGGAGAUAGAUATT against Psip1	inactive: 0.901
GGAUCCUCGGACUAAAAGUTT against Pnma1	inactive: -0.228
GGACAAAUGACUGGUACCCTT against Gorasp2	inactive: -0.314
CCUGUUCUGUUAUCAACGGTT against Plxdc1	inactive: 0.123
GAUGUACGAUCUGGUGGUGTT against Exosc6	active: 2.73
CGUGAAUCCUAACAUGAGATT against Sec11c	inactive: 0.0104
GGCGAGUUUGUUCUCUUAGTT against Olfr11	inactive: 0.874
GGAAGUCCUUGCAUUCCUCTT against Dlec1	inactive: 0.816
GGAAAAGGAAAAAUAACCUTT against Ptma	inactive: -0.555
GCAUCAUUGUCAAUCAUAUTT against Olfr578	active: -2.25
GCAAACGCAGUACUAUGGUTT against Pak2	inactive: -0.818
GCCUCCCUGAAUGCCUAUATT against Sectm1b	inactive: -1.81

Going on with the list.

Sequence | z-score
GCCAGGAAUAGUGAUUAUUTT against Atp11c | inactive: -1.19
GGAGGGAGUGAAAACUUUCTT against Ankrd46 | inactive: 0.616
GGUUUACUUCCCAUACCUGTT against Pold1 | inactive: 0.701
GGUUGUCAAUCAUGUCUAUTT against Gpr137c | inactive: 1.09
CGAAGCUGUUCAUAAGUAUTT against Gsr | inactive: 1.06
CCCUAUGGUGAAAUCUGUCTT against Prrc1 | inactive: -1.8
GGUGAUAGAGUAGAAGAUGTT against Hdgfl3 | inactive: 0.3
GCCCGUGUAGUGCUGGAUUTT against Tbca | inactive: -1.2
GCUUCACAAUUCCUGAUAATT against Aak1 | inactive: 0.398
GGAGUUUGACAAGAAGUACTT against Dynll1 | inactive: -0.303
GGUAUAGUUAAAGUGAGAGTT against Sp8 | inactive: -0.883
GGACUAUGGGAUUUCAGUUTT against Txndc16 | inactive: 0.263
GGAGAAGGAUAGAGAUGGUTT against Phf5a | inactive: -1.84
CCUACCAAAACGACUAUAUTT against Pnma3 | inactive: -1.29
GGCGAGAGGUACGACAAUATT against H60a | inactive: -1.96
CCAAAAGGUUCGAGUUUCATT against Padi4 | inactive: 1.57
GCCAAUACCAAUCAAGCUGTT against Celf4 | inactive: -1.97
GCAUCUCACGCUACAGAUUTT against Dock2 | inactive: 1.97
GCUGUUACCCUUAUGCAGCTT against Supt7l | inactive: 0.486
CGGAAACGAAGACUUGAAATT against Arhgef4 | inactive: -0.151
UAAUCAUGAGCUCUUCCGATT against N4bp2 | inactive: 0.527
GGCAUCUGUUACCCAGAAUTT against Zfp384 | inactive: -1.92
GGUUGGAUGCUUUCUAAGATT against Pot1a | inactive: 0.923
